Assay [1] addresses T1, SMC1A-GFP (human) (UniProt Q14683).
T1 sequence: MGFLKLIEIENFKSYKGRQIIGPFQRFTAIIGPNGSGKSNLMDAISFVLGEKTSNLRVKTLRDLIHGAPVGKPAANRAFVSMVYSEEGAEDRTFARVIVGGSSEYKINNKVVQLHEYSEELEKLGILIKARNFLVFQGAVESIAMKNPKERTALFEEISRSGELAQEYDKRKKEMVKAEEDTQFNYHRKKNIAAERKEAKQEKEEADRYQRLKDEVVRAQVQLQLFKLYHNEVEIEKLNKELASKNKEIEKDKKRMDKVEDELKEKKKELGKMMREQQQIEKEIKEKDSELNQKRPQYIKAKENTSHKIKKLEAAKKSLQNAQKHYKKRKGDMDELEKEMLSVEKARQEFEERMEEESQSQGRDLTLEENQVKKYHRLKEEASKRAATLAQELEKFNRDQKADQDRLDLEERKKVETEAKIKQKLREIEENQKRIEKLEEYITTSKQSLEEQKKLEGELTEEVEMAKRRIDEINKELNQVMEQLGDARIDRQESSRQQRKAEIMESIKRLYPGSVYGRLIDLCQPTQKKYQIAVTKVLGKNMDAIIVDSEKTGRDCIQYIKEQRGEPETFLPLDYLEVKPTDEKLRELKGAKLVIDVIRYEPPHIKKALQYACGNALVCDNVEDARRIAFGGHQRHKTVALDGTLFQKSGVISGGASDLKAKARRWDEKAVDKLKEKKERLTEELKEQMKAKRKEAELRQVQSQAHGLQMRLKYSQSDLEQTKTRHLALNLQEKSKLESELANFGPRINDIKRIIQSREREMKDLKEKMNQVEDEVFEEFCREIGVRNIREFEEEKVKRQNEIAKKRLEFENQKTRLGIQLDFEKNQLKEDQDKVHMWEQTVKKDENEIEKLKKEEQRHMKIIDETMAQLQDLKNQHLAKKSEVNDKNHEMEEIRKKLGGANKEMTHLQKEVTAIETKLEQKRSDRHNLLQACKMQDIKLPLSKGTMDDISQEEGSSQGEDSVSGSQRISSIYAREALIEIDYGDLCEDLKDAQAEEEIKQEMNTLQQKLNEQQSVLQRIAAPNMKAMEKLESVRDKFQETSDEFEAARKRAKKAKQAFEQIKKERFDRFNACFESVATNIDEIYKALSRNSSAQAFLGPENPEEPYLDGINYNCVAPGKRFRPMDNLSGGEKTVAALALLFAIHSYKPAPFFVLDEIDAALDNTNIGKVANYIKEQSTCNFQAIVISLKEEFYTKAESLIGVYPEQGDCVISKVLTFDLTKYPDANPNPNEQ
In words: affinity purification with mass spectrometry; on-chip AP-MS: microfluidic columns of Dynabeads M-270 epoxy coupled to anti-GFP nanobody Lag16-2K/R (24-reactor chip; SMC1A and CCDC93 also on the 48-reactor chip), 4 µg whole-cell extract or 12,000-25,000 cells per pull-down, loaded at 15 °C, washes with 1 M NaCl buffer and PBS, on-bead digestion; control wild-type or not induced cells; label-free quantification.

For assay [2], the target named is T1, SMC1A-GFP (human). In words: affinity purification with mass spectrometry; microcentrifuge tube-based GFP pull-down on GFP-Trap_A beads, 500 µg whole-cell extract, incubation 90 min at 4 °C in 300 mM NaCl buffer with ethidium bromide, washes with 1 M NaCl buffer; control wild-type HeLa Kyoto; label-free quantification.

No constants are given. Whether binding was seen depends on the method and setting. In cells and extracts the contact can be indirect. These calls come from enrichment with a bait or labelling near it, and not all partners need be listed. For some of these results: No binding means not detected with the bait. Tags and fused reporters may be left off the sequences shown.

B1: HSD17B10 (protein, UniProt Q99714 1-261)
chain: MAAACRSVKGLVAVITGGASGLGLATAERLVGQGASAVLLDLPNSGGEAQAKKLGNNCVFAPADVTSEKDVQTALALAKGKFGRVDVAVNCAGIAVASKTYNLKKGQTHTLEDFQRVLDVNLMGTFNVIRLVAGEMGQNEPDQGGQRGVIINTASVAAFEGQVGQAAYSASKGGIVGMTLPIARDLAPIGIRVMTIAPGLFGTPLLTSLPEKVCNFLASQVPFPSRLGDPAEYAHLVQAIIENPFLNGEVIRLDGAIRMQP
On to B1, for which the binding result with SMC1A-GFP (human) [1] is “no binding”.

B2: PDS5B (protein, UniProt Q9NTI5 1-1447)
chain: MAHSKTRTNDGKITYPPGVKEISDKISKEEMVRRLKMVVKTFMDMDQDSEEEKELYLNLALHLASDFFLKHPDKDVRLLVACCLADIFRIYAPEAPYTSPDKLKDIFMFITRQLKGLEDTKSPQFNRYFYLLENIAWVKSYNICFELEDSNEIFTQLYRTLFSVINNGHNQKVHMHMVDLMSSIICEGDTVSQELLDTVLVNLVPAHKNLNKQAYDLAKALLKRTAQAIEPYITNFFNQVLMLGKTSISDLSEHVFDLILELYNIDSHLLLSVLPQLEFKLKSNDNEERLQVVKLLAKMFGAKDSELASQNKPLWQCYLGRFNDIHVPIRLECVKFASHCLMNHPDLAKDLTEYLKVRSHDPEEAIRHDVIVSIVTAAKKDILLVNDHLLNFVRERTLDKRWRVRKEAMMGLAQIYKKYALQSAAGKDAAKQIAWIKDKLLHIYYQNSIDDRLLVERIFAQYMVPHNLETTERMKCLYYLYATLDLNAVKALNEMWKCQNLLRHQVKDLLDLIKQPKTDASVKAIFSKVMVITRNLPDPGKAQDFMKKFTQVLEDDEKIRKQLEVLVSPTCSCKQAEGCVREITKKLGNPKQPTNPFLEMIKFLLERIAPVHIDTESISALIKQVNKSIDGTADDEDEGVPTDQAIRAGLELLKVLSFTHPISFHSAETFESLLACLKMDDEKVAEAALQIFKNTGSKIEEDFPHIRSALLPVLHHKSKKGPPRQAKYAIHCIHAIFSSKETQFAQIFEPLHKSLDPSNLEHLITPLVTIGHIALLAPDQFAAPLKSLVATFIVKDLLMNDRLPGKKTTKLWVPDEEVSPETMVKIQAIKMMVRWLLGMKNNHSKSGTSTLRLLTTILHSDGDLTEQGKISKPDMSRLRLAAGSAIVKLAQEPCYHEIITLEQYQLCALAINDECYQVRQVFAQKLHKGLSRLRLPLEYMAICALCAKDPVKERRAHARQCLVKNINVRREYLKQHAAVSEKLLSLLPEYVVPYTIHLLAHDPDYVKVQDIEQLKDVKECLWFVLEILMAKNENNSHAFIRKMVENIKQTKDAQGPDDAKMNEKLYTVCDVAMNIIMSKSTTYSLESPKDPVLPARFFTQPDKNFSNTKNYLPPEMKSFFTPGKPKTTNVLGAVNKPLSSAGKQSQTKSSRMETVSNASSSSNPSSPGRIKGRLDSSEMDHSENEDYTMSSPLPGKKSDKRDDSDLVRSELEKPRGRKKTPVTEQEEKLGMDDLTKLVQEQKPKGSQRSRKRGHTASESDEQQWPEEKRLKEDILENEDEQNSPPKKGKRGRPPKPLGGGTPKEEPTMKTSKKGSKKKSGPPAPEEEEEEERQSGNTEQKSKSKQHRVSRRAQQRAESPESSAIESTQSTPQKGRGRPSKTPSPSQPKKNVRVGRSKQAATKENDSSEEVDVFQGSSPVDDIPQEETEEEEVSTVNVRRRSAKRERR
On to B2, for which, in the assay with SMC1A-GFP (human) [2], the binding result is “binds”.

B3: PDS5A (protein, UniProt Q29RF7 1-1337)
chain: MDFTAQPKPATALCGVVSADGKIAYPPGVKEITDKITTDEMIKRLKMVVKTFMDMDQDSEDEKQQYLPLALHLASEFFLRNPNKDVRLLVACCLADIFRIYAPEAPYTSHDKLKDIFLFITRQLKGLEDTKSPQFNRYFYLLENLAWVKSYNICFELEDCNEIFIQLFRTLFSVINNSHNKKVQMHMLDLMSSIIMEGDGVTQELLDSILINLIPAHKNLNKQSFDLAKVLLKRTVQTIEACIANFFNQVLVLGRSSVSDLSEHVFDLIQELFAIDPHLLLSVMPQLEFKLKSNDGEERLAVVRLLAKLFGSKDSDLATQNRPLWQCFLGRFNDIHVPVRLESVKFASHCLMNHPDLAKDLTEYLKVRSHDPEEAIRHDVIVTIITAAKRDLALVNDQLLGFVRERTLDKRWRVRKEAMMGLAQLYKKYCLHGEAGKEAAEKVSWIKDKLLHIYYQNSIDDKLLVEKIFAQYLVPHNLETEERMKCLYYLYASLDPNAVKALNEMWKCQNMLRSHVRELLDLHKQPTSEANCSAMFGKLMTIAKNLPDPGKAQDFVKKFNQVLGDDEKLRSQLELLISPTCSCKQADICVREIARKLANPKQPTNPFLEMVKFLLERIAPVHIDSEAISALVKLMNKSIEGTADDEEEGVSPDTAIRSGLELLKVLSFTHPTSFHSAETYESLLQCLRMEDDKVAEAAIQIFRNTGHKIETDLPQIRSTLIPILHQKAKRGTPHQAKQAVHCIHAIFTNKEVQLAQIFEPLSRSLNADVPEQLITPLVSLGHISMLAPDQFASPMKSVVANFIVKDLLMNDRSTGEKNGKLWSPDEEVSPEVLAKVQAIKLLVRWLLGMKNNQSKSANSTLRLLSAMLVSEGDLTEQKRISKSDMSRLRLAAGSAIMKLAQEPCYHEIITPEQFQLCALVINDECYQVRQIFAQKLHKALVKLLLPLEYMAIFALCAKDPVKERRAHARQCLLKNISIRREYIKQNPMATEKLLSLLPEYVVPYMIHLLAHDPDFTRSQDVDQLRDIKECLWFMLEVLMTKNENNSHAFMKKMAENIKLTRDAQSPDESKTNEKLYTVCDVALCVINSKSALCNADSPKDPVLPMKFFTQPEKDFCNDKSYISEETRVLLLTGKPKPAGVLGAVNKPLSATGRKPYVRSTGTETGSNINVNSELNPSTGNRSREQSSEAAETGVSENEENPVRIISVTPVKNIDPVKNKEINSDQATQGNISSDRGKKRTVTAAGAENIQQKTDEKVDESGPPAPSKPRRGRRPKSESQGNATKNDDLNKPINKGRKRAAVGQESPGGLEAGNAKAPKLQDLAKKAAPAERQIDLQR
Turning to B3, the binding entry in the assay with SMC1A-GFP (human) [2] is given as “binds”.

B4: WAPL (protein, UniProt Q7Z5K2 1-1190)
chain: MTSRFGKTYSRKGGNGSSKFDEVFSNKRTTLSTKWGETTFMAKLGQKRPNFKPDIQEIPKKPKVEEESTGDPFGFDSDDESLPVSSKNLAQVKCSSYSESSEAAQLEEVTSVLEANSKISHVVVEDTVVSDKCFPLEDTLLGKEKSTNRIVEDDASISSCNKLITSDKVENFHEEHEKNSHHIHKNADDSTKKPNAETTVASEIKETNDTWNSQFGKRPESPSEISPIKGSVRTGLFEWDNDFEDIRSEDCILSLDSDPLLEMKDDDFKNRLENLNEAIEEDIVQSVLRPTNCRTYCRANKTKSSQGASNFDKLMDGTSQALAKANSESSKDGLNQAKKGGVSCGTSFRGTVGRTRDYTVLHPSCLSVCNVTIQDTMERSMDEFTASTPADLGEAGRLRKKADIATSKTTTRFRPSNTKSKKDVKLEFFGFEDHETGGDEGGSGSSNYKIKYFGFDDLSESEDDEDDDCQVERKTSKKRTKTAPSPSLQPPPESNDNSQDSQSGTNNAENLDFTEDLPGVPESVKKPINKQGDKSKENTRKIFSGPKRSPTKAVYNARHWNHPDSEELPGPPVVKPQSVTVRLSSKEPNQKDDGVFKAPAPPSKVIKTVTIPTQPYQDIVTALKCRREDKELYTVVQHVKHFNDVVEFGENQEFTDDIEYLLSGLKSTQPLNTRCLSVISLATKCAMPSFRMHLRAHGMVAMVFKTLDDSQHHQNLSLCTAALMYILSRDRLNMDLDRASLDLMIRLLELEQDASSAKLLNEKDMNKIKEKIRRLCETVHNKHLDLENITTGHLAMETLLSLTSKRAGDWFKEELRLLGGLDHIVDKVKECVDHLSRDEDEEKLVASLWGAERCLRVLESVTVHNPENQSYLIAYKDSQLIVSSAKALQHCEELIQQYNRAEDSICLADSKPLPHQNVTNHVGKAVEDCMRAIIGVLLNLTNDNEWGSTKTGEQDGLIGTALNCVLQVPKYLPQEQRFDIRVLGLGLLINLVEYSARNRHCLVNMETSCSFDSSICSGEGDDSLRIGGQVHAVQALVQLFLERERAAQLAESKTDELIKDAPTTQHDKSGEWQETSGEIQWVSTEKTDGTEEKHKKEEEDEELDLNKALQHAGKHMEDCIVASYTALLLGCLCQESPINVTTVREYLPEGDFSIMTEMLKKFLSFMNLTCAVGTTGQKSISRVIEYLEHC
In the case of B4, the binding result with SMC1A-GFP (human) [2] is “binds”.

The record behind these values is publication PMC6449397.
